Reference: patent publication US20150182631A1, “SYSTEM FOR […]-BASED ACTIVE INGREDIENTS” (Centre National De La Recherche Scientifique-CNRS, priority 2012, published 2015)

B1: XCL: Xerocomus chrysenteron lectin, fungal sporocarp lectin forming a tetramer with central cavity, SEQ ID NO: 1 (protein)
chain: MSYSITLRVYQTNRDRGYFSIVEKTVWHFANGGTWSEANGAHTLTQGGSGTSGVLRFLSTKGERITVAVGVHNYKRWCDVVTGLKPDETALVINPQYYNNGGRDYVREKQLAEYSVTSAIGTKVEVVYTVAEGNNLEANVIFS
modifications: Xerocomus chrysenteron
B2: A38C: XCL variant with alanine 38 replaced by cysteine, SEQ ID NO: 2; A38R reduced before confinement, A38NR not reduced, A38Cox oxidised (protein)
chain: B1 chain with A38C
modifications: Variant A38C
notes: A38R reduced before confinement, A38NR not reduced, A38Cox oxidised

Experiment: Confinement of fluorescein in the lectin cavity
Conditions: for confinement rate (fluorescein/protein ratio): protein 15 μM, fluorescein 10 mM, 11 independent experiments
Procedure: The confinement experiments are carried out by incubating the wild-type protein (XCL) or the mutants (A38C) with the molecule to be tested. In order to carry out the control experiments with the mutant A38C, an oxidation step is carried out in the presence of GSSG in a phosphate buffer 50 mM, 100 mM NaCl, pH 7.2, OVN. The GSSG is then eliminated on a PD-10 sephadex G-25M column (GE Healthcare) pre-balanced in a phosphate buffer 50 mM, 100 mM NaCl, pH 8.5. The eluate is concentred at 1 ml on Vivaspin 15R 30,000 MWCO (Sartorius stedim). A batch of A38C is reduced to TCEP (under argon) with adding of NaOH for a final pH of 8.5. The proof of concept for the confinement was carried out with fluorescein at a concentration of 10 mM. The incubation is carried out for 1h at 25° C. in the phosphate buffer 50 mM, 100 mM NaCl. For the reduced mutant A38C another step of oxidation is carried out with GSSG, OVN. The free fluorescein is eliminated on a PD-10 sephadex G-25M column (GE Healthcare). The sample is then concentrated on Vivaspin 15R 30,000 MWCO (Sartorius stedim). […] The quantity of fluorescein is measured by using an absorption coefficient of e511 nm=75,000 cm^−1 M^−1. The concentrations of XCL and of A38C after the confinement are calculated with e278 nm=[…]. The percentage of confinement is calculated by forming the ratio of the fluorescein/protein concentrations.
In the case with XCL, the inventors incubated the protein (15 μM) with fluorescein (10 mM) and then separated the protein from the non-confined molecules of fluorescein by two successive gel filtration columns. Beforehand, the inventors verified that if these two columns on the fluorescein solution are carried out at 10 mM, no residual free fluorescein is detected. The fluorescein detected during the confinement is therefore necessarily linked to the protein or contained by the latter. […]
After this confinement steps and the elimination of the free fluorescein, the respective concentrations in fluorescein and in protein are determined via UV absorbance at 511 nm and at 280 nm. […]

Molecule | confinement rate (fluorescein/protein ratio) [%] | increase of the rate of confinement versus XCL (A38C in oxidised form after confinement)
B1 | 9 | 
B2 | 14 | multiply the rate of confinement by two

Where a chain is given by its changes, count along the chain named. Names may count otherwise.
